{"source": "PubChem BioAssay AID1259405 (NCATS, 2018)", "aim": "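Silenced genes that increase secreted GFP made by CHO cells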 (primary screen)", "cell system": "Chinese hamster CHO-K1 ovary cells with stable secreted eGFP expression", "reagents": "single siRNA against mouse genes, 0.8 pmol siRNA per well (2 µl of 400 nM stock)", "timing": "3 days", "detection": "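Per-well intracellular GFP measured by laser scanning cytometry, plus viability from ATP luminescence, each relative to plate median of non-targeting control wells, in %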", "direction": "GFP, % of control: higher = more GFP per well, higher productivity; viability (ATP), % of control: higher = more viable cells (more ATP)", "rule for the call": "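Called active when intracellular GFP, relative to negative control, is at or above 120%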", "note": "This is a random part of about 50,000 deposited reagents. About 4,000 of all reagents (8%) count as active. 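Mouse siRNA library applied to hamster cells; one well for each siRNA.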 Entries without a mark were called inactive. Reagent sequences are not shown."}
{"Gene": "Ptrh2", "PubChem SID": "SID363545766", "GFP, % of control": 86.7, "viability (ATP), % of control": 83.9}
{"Gene": "Ptrh2", "PubChem SID": "SID363549279", "GFP, % of control": 81.1, "viability (ATP), % of control": 90.9}
{"Gene": "Ptrh2", "PubChem SID": "SID363563085", "GFP, % of control": 54.9, "viability (ATP), % of control": 59.9}
{"Gene": "Nars2", "PubChem SID": "SID363545162", "GFP, % of control": "135 (active)", "viability (ATP), % of control": 81.6}
{"Gene": "Nars2", "PubChem SID": "SID363548675", "GFP, % of control": 47.8, "viability (ATP), % of control": 67.4}
{"Gene": "Nars2", "PubChem SID": "SID363562481", "GFP, % of control": 38.9, "viability (ATP), % of control": 37.4}
{"Gene": "Or52n4b", "PubChem SID": "SID363554107", "GFP, % of control": 109, "viability (ATP), % of control": 76.5}
{"Gene": "Or52n4b", "PubChem SID": "SID363567554", "GFP, % of control": 25.9, "viability (ATP), % of control": 29.3}
{"Gene": "Or52n4b", "PubChem SID": "SID363584911", "GFP, % of control": 80, "viability (ATP), % of control": 84.8}
{"Gene": "Aff4", "PubChem SID": "SID363541067", "GFP, % of control": "160 (active)", "viability (ATP), % of control": 107}
{"Gene": "Aff4", "PubChem SID": "SID363555694", "GFP, % of control": 69.8, "viability (ATP), % of control": 78.3}
{"Gene": "Aff4", "PubChem SID": "SID363565983", "GFP, % of control": 78, "viability (ATP), % of control": 80.8}
{"Gene": "Pfkfb3", "PubChem SID": "SID363575160", "GFP, % of control": 91.4, "viability (ATP), % of control": 103}
{"Gene": "Pfkfb3", "PubChem SID": "SID363580792", "GFP, % of control": 51.7, "viability (ATP), % of control": 72.2}
{"Gene": "Pfkfb3", "PubChem SID": "SID363582904", "GFP, % of control": 77.5, "viability (ATP), % of control": 76.7}
{"Gene": "Or10d1b", "PubChem SID": "SID363544663", "GFP, % of control": "135 (active)", "viability (ATP), % of control": 73.6}
{"Gene": "Or10d1b", "PubChem SID": "SID363550991", "GFP, % of control": 85.7, "viability (ATP), % of control": 89.7}
{"Gene": "Or10d1b", "PubChem SID": "SID363557540", "GFP, % of control": 80, "viability (ATP), % of control": 118}
{"Gene": "Klk7", "PubChem SID": "SID363574500", "GFP, % of control": 57.2, "viability (ATP), % of control": 78.2}
{"Gene": "Klk7", "PubChem SID": "SID363575556", "GFP, % of control": 67.8, "viability (ATP), % of control": 85.2}
{"Gene": "Klk7", "PubChem SID": "SID363580132", "GFP, % of control": 50.8, "viability (ATP), % of control": 57.8}
{"Gene": "Habp2", "PubChem SID": "SID363581650", "GFP, % of control": 111, "viability (ATP), % of control": 83.4}
{"Gene": "Habp2", "PubChem SID": "SID363589144", "GFP, % of control": 76.9, "viability (ATP), % of control": 84.5}
{"Gene": "Ring1", "PubChem SID": "SID363573537", "GFP, % of control": 65.5, "viability (ATP), % of control": 84.2}
{"Gene": "Ring1", "PubChem SID": "SID363581281", "GFP, % of control": 93.1, "viability (ATP), % of control": 72.4}
{"Gene": "Ring1", "PubChem SID": "SID363583745", "GFP, % of control": 81, "viability (ATP), % of control": 76.2}
{"Gene": "Txn1", "PubChem SID": "SID363572829", "GFP, % of control": 74, "viability (ATP), % of control": 55.8}
{"Gene": "Txn1", "PubChem SID": "SID363577405", "GFP, % of control": 38.6, "viability (ATP), % of control": 43.3}
{"Gene": "Txn1", "PubChem SID": "SID363580925", "GFP, % of control": 98, "viability (ATP), % of control": 54.4}
{"Gene": "Disp2", "PubChem SID": "SID363539795", "GFP, % of control": 50.5, "viability (ATP), % of control": 84.7}
{"Gene": "Disp2", "PubChem SID": "SID363561096", "GFP, % of control": 44.9, "viability (ATP), % of control": 69.9}
{"Gene": "Disp2", "PubChem SID": "SID363565186", "GFP, % of control": 64.7, "viability (ATP), % of control": 86.7}
{"Gene": "Ly6g5b", "PubChem SID": "SID363581638", "GFP, % of control": "131 (active)", "viability (ATP), % of control": 101}
{"Gene": "Ly6g5b", "PubChem SID": "SID363589132", "GFP, % of control": 94, "viability (ATP), % of control": 70.2}
{"Gene": "Eif4h", "PubChem SID": "SID363569197", "GFP, % of control": 88.5, "viability (ATP), % of control": 112}
{"Gene": "Eif4h", "PubChem SID": "SID363583629", "GFP, % of control": 69, "viability (ATP), % of control": 78.9}
{"Gene": "Rims3", "PubChem SID": "SID363545179", "GFP, % of control": 109, "viability (ATP), % of control": 85.8}
{"Gene": "Rims3", "PubChem SID": "SID363548692", "GFP, % of control": 85.2, "viability (ATP), % of control": 84.9}
{"Gene": "Rims3", "PubChem SID": "SID363562498", "GFP, % of control": 47.9, "viability (ATP), % of control": 56.4}
{"Gene": "Psmd5", "PubChem SID": "SID363555081", "GFP, % of control": 39, "viability (ATP), % of control": 43.9}
{"Gene": "Psmd5", "PubChem SID": "SID363568528", "GFP, % of control": 55.9, "viability (ATP), % of control": 60.2}
{"Gene": "Psmd5", "PubChem SID": "SID363586587", "GFP, % of control": 69.2, "viability (ATP), % of control": 73.2}

Individual results from the list.
Klk7 [SID363580132], viability (ATP), % of control: 57.8
Entry of Pfkfb3 [SID363580792] in “viability (ATP), % of control”: 72.2
